Reference: paper doi:10.1101/2021.06.18.449075
These are yes or no findings as the source states them, for the method shown. Binding seen in cells or lysates may run through a third protein. A result given as binding can be weak or reduced; the word gives no strength. Tags and fused reporters may be left off the sequences shown.

Target: T1, His-tagged OsSRT1 (rice (Oryza sativa indica)) (UniProt B8ARK7)
T1 sequence: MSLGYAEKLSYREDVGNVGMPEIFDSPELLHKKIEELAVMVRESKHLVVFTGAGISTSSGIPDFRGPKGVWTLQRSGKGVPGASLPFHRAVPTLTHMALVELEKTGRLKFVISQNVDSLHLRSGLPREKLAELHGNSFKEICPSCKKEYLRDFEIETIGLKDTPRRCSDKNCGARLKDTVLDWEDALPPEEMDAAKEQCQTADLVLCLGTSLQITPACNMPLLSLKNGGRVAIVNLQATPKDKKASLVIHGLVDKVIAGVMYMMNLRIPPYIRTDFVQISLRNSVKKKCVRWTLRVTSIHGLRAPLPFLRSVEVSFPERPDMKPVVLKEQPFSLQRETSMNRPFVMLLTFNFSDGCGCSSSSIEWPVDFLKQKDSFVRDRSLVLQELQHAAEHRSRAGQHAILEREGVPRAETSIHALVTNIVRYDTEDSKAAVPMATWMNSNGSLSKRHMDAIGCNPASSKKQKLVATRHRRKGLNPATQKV
Assay: pull-down

- binding: binds
Substance: OsPARP2 (enzyme)
